# Laboratory results taken from the supplement of paper PMC8728848.
# Some of the results follow.
# Assays:
# Assay in all cases: glycan array binding signal (z-score within array); higher = stronger binding
# Conditions in all cases: glycan notation: IUPAC condensed, linker removed
# Neu5Ac(a2-6)Gal(b1-4)Glc = molecular target: Neu5Ac(a2-6)Gal(b1-4)Glc
# Procedure, shortened: (§1)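 Columns mapping to the same glycan were averaged after glycan names were converted to IUPAC-condensed notation. The data come from 3228 arrays in the Consortium for Functional Glycomics database, limited to those with an available protein sequence. Binding is reported as a within-array Z-score averaged across arrays of one protein sequence and across linkers.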
# [1] = molecular target: Neu5Ac(a2-6)Gal(b1-4)GlcNAc
# Procedure, shortened: as §1
# [2] = molecular target: Neu5Ac(a2-6)Gal(b1-4)GlcNAc(b1-2)Man(a1-3)Man(b1-4)GlcNAc(b1-4)GlcNAc
# Procedure, shortened: as §1
# [3] = molecular target: Neu5Ac(a2-6)Gal(b1-4)GlcNAc(b1-2)Man(a1-3)[Gal(b1-4)GlcNAc(b1-2)Man(a1-6)]Man(b1-4)GlcNAc(b1-4)GlcNAc
# Procedure, shortened: as §1
# [4] = molecular target: Neu5Ac(a2-6)Gal(b1-4)GlcNAc(b1-2)Man(a1-3)[GlcNAc(b1-2)Man(a1-6)]Man(b1-4)GlcNAc(b1-4)GlcNAc
# Procedure, shortened: as §1
# [5] = molecular target: Neu5Ac(a2-6)Gal(b1-4)GlcNAc(b1-2)Man(a1-3)[GlcNAc(b1-2)Man(b1-4)GlcNAc(b1-2)Man(a1-6)]Man(b1-4)GlcNAc(b1-4)GlcNAc
# Procedure, shortened: as §1
# [6] = molecular target: Neu5Ac(a2-6)Gal(b1-4)GlcNAc(b1-2)Man(a1-3)[Man(a1-6)]Man(b1-4)GlcNAc(b1-4)GlcNAc
# Procedure, shortened: as §1
# [7] = molecular target: Neu5Ac(a2-6)Gal(b1-4)GlcNAc(b1-2)Man(a1-3)[Neu5Ac(a2-6)Gal(b1-4)GlcNAc(b1-2)Man(a1-6)]Man(b1-4)GlcNAc(b1-4)GlcNAc
# Procedure, shortened: as §1
# [8] = molecular target: Neu5Ac(a2-6)Gal(b1-4)GlcNAc(b1-2)Man(a1-6)Man(b1-4)GlcNAc(b1-4)GlcNAc
# Procedure, shortened: as §1
# [9] = molecular target: Neu5Ac(a2-6)Gal(b1-4)GlcNAc(b1-2)Man(a1-6)[Gal(b1-4)GlcNAc(b1-2)Man(a1-3)]Man(b1-4)GlcNAc(b1-4)GlcNAc
# Procedure, shortened: as §1
# [10] = molecular target: Neu5Ac(a2-6)Gal(b1-4)GlcNAc(b1-2)Man(a1-6)[GlcNAc(b1-2)Man(a1-3)]Man(b1-4)GlcNAc(b1-4)GlcNAc
# Procedure, shortened: as §1
# [11] = molecular target: Neu5Ac(a2-6)Gal(b1-4)GlcNAc(b1-2)Man(a1-6)[Man(a1-3)]Man(b1-4)GlcNAc(b1-4)GlcNAc
# Procedure, shortened: as §1
# [12] = molecular target: Neu5Ac(a2-6)Gal(b1-4)GlcNAc(b1-3)Gal(b1-3)GlcNAc
# Procedure, shortened: as §1
# [13] = molecular target: Neu5Ac(a2-6)Gal(b1-4)GlcNAc(b1-3)Gal(b1-4)GlcNAc
# Procedure, shortened: as §1
# [14] = molecular target: Neu5Ac(a2-6)Gal(b1-4)GlcNAc(b1-3)Gal(b1-4)GlcNAc(b1-3)Gal(b1-4)GlcNAc
# Procedure, shortened: as §1
# [15] = molecular target: Neu5Ac(a2-6)Gal(b1-4)GlcNAc(b1-3)Gal(b1-4)[Fuc(a1-3)]GlcNAc(b1-3)Gal(b1-4)[Fuc(a1-3)]GlcNAc
# Procedure, shortened: as §1
# [16] = molecular target: Neu5Ac(a2-6)Gal(b1-4)GlcNAc(b1-3)GalNAc
# Procedure, shortened: as §1
# [17] = molecular target: Neu5Ac(a2-6)Gal(b1-4)GlcNAc6S
# Procedure, shortened: as §1
# Neu5Ac(a2-6)GalNAc = molecular target: Neu5Ac(a2-6)GalNAc
# Procedure, shortened: as §1
# [18] = molecular target: Neu5Ac(a2-6)GalNAc(b1-4)GlcNAc
# Procedure, shortened: as §1
# [19] = molecular target: Neu5Ac(a2-6)GlcNAc(b1-4)GlcNAc
# Procedure, shortened: as §1
# [20] = molecular target: Neu5Ac(a2-6)GlcNAc(b1-4)GlcNAc(b1-4)GlcNAc
# Procedure, shortened: as §1
# Neu5Ac(a2-8)Neu5Ac = molecular target: Neu5Ac(a2-8)Neu5Ac
# Procedure, shortened: as §1
# [21] = molecular target: Neu5Ac(a2-8)Neu5Ac(a2-3)Gal(b1-4)Glc
# Procedure, shortened: as §1
# [22] = molecular target: Neu5Ac(a2-8)Neu5Ac(a2-3)[GalNAc(b1-4)]Gal(b1-4)Glc
# Procedure, shortened: as §1
# [23] = molecular target: Neu5Ac(a2-8)Neu5Ac(a2-8)Neu5Ac
# Procedure, shortened: as §1
# [24] = molecular target: Neu5Ac(a2-8)Neu5Ac(a2-8)Neu5Ac(a2-3)Gal(b1-4)Glc
# Procedure, shortened: as §1
# [25] = molecular target: Neu5Ac(a2-8)Neu5Ac(a2-8)Neu5Ac(a2-3)[GalNAc(b1-4)]Gal(b1-4)Glc
# Procedure, shortened: as §1
# [26] = molecular target: Neu5Ac(a2-8)Neu5Ac(a2-8)Neu5Ac(a2-8)Neu5Ac(a2-3)[GalNAc(b1-4)]Gal(b1-4)Glc
# Procedure, shortened: as §1
# [27] = molecular target: Neu5Ac(b2-6)Gal(b1-4)GlcNAc
# Procedure, shortened: as §1
# Neu5Ac(b2-6)GalNAc = molecular target: Neu5Ac(b2-6)GalNAc
# Procedure, shortened: as §1
# [28] = molecular target: Neu5Ac9Ac(a2-3)Gal(b1-3)GlcNAc
# Procedure, shortened: as §1
# [29] = molecular target: Neu5Ac9Ac(a2-3)Gal(b1-4)GlcNAc
# Procedure, shortened: as §1
# [30] = molecular target: Neu5Ac9Ac(a2-6)Gal(b1-4)GlcNAc
# Procedure, shortened: as §1
# [31] = molecular target: Neu5Gc(a2-3)Gal(b1-3)GlcNAc
# Procedure, shortened: as §1
# [32] = molecular target: Neu5Gc(a2-3)Gal(b1-3)[Fuc(a1-4)]GlcNAc
# Procedure, shortened: as §1
# Neu5Gc(a2-3)Gal(b1-4)Glc = molecular target: Neu5Gc(a2-3)Gal(b1-4)Glc
# Procedure, shortened: as §1
# [33] = molecular target: Neu5Gc(a2-3)Gal(b1-4)GlcNAc
# Procedure, shortened: as §1
# [34] = molecular target: Neu5Gc(a2-3)Gal(b1-4)[Fuc(a1-3)]GlcNAc
# Procedure, shortened: as §1
# [35] = molecular target: Neu5Gc(a2-6)Gal(b1-4)GlcNAc
# Procedure, shortened: as §1
# Neu5Gc(a2-6)GalNAc = molecular target: Neu5Gc(a2-6)GalNAc
# Procedure, shortened: as §1
# [36] = molecular target: Neu5Gc(b2-6)Gal(b1-4)GlcNAc
# Procedure, shortened: as §1
binder,measurement,setting,value
"Adiponectin (Rattus norvegicus), Q8K3R4 (protein) MLLLQALLFLLILPSHEGITATEGPGALVPPPKETCAGWMAGIPGYPGHNGIPGRDGRDGTPGEKGEKGDAGVLGPKGDPGDAGMTGAEGPRGFPGTPGRKGEPGEAAYMYHSAFSVGLETRVTVPNVPIRFTKIFYNQQNHYDGSTGKFHCNIPGLYYFSYHITVYMKDVKVSLFKKDKAVLFTYDQYQEKNVDQASGSMLLHLEVGDQVWLQVYGEGDNNGLYADNVNDSTFTGFLLYHDTN",glycan array binding signal (z-score),Neu5Ac(a2-6)Gal(b1-4)Glc,-0.671
same,glycan array binding signal (z-score),[1],0.383
same,glycan array binding signal (z-score),[2],0.717
same,glycan array binding signal (z-score),[3],0.481
same,glycan array binding signal (z-score),[4],0.609
same,glycan array binding signal (z-score),[5],-0.035
same,glycan array binding signal (z-score),[6],0.188
same,glycan array binding signal (z-score),[7],1.03
same,glycan array binding signal (z-score),[8],-0.181
same,glycan array binding signal (z-score),[9],0.675
same,glycan array binding signal (z-score),[10],-0.838
same,glycan array binding signal (z-score),[11],-0.178
same,glycan array binding signal (z-score),[12],-0.745
same,glycan array binding signal (z-score),[13],-0.428
same,glycan array binding signal (z-score),[14],-0.767
same,glycan array binding signal (z-score),[15],-0.64
same,glycan array binding signal (z-score),[16],2.46
same,glycan array binding signal (z-score),[17],0.441
same,glycan array binding signal (z-score),Neu5Ac(a2-6)GalNAc,-0.93
same,glycan array binding signal (z-score),[18],-0.235
same,glycan array binding signal (z-score),[19],-0.624
same,glycan array binding signal (z-score),[20],-0.632
same,glycan array binding signal (z-score),Neu5Ac(a2-8)Neu5Ac,0.121
same,glycan array binding signal (z-score),[21],0.466
same,glycan array binding signal (z-score),[22],0.022
same,glycan array binding signal (z-score),[23],-0.59
same,glycan array binding signal (z-score),[24],2.82
same,glycan array binding signal (z-score),[25],1.32
same,glycan array binding signal (z-score),[26],0.861
same,glycan array binding signal (z-score),[27],-0.165
same,glycan array binding signal (z-score),Neu5Ac(b2-6)GalNAc,1.01
same,glycan array binding signal (z-score),[28],-0.658
same,glycan array binding signal (z-score),[29],-0.748
same,glycan array binding signal (z-score),[30],1.53
same,glycan array binding signal (z-score),[31],0.08
same,glycan array binding signal (z-score),[32],0.219
same,glycan array binding signal (z-score),Neu5Gc(a2-3)Gal(b1-4)Glc,-0.534
same,glycan array binding signal (z-score),[33],-0.295
same,glycan array binding signal (z-score),[34],-1.11
same,glycan array binding signal (z-score),[35],-0.729
same,glycan array binding signal (z-score),Neu5Gc(a2-6)GalNAc,-0.529
same,glycan array binding signal (z-score),[36],1.03

# Some of the entries so far, tab-delimited:
binder	measurement	setting	value
Adiponectin (Rattus norvegicus), Q8K3R4 (protein) MLLLQALLFLLILPSHEGITATEGPGALVPPPKETCAGWMAGIPGYPGHNGIPGRDGRDGTPGEKGEKGDAGVLGPKGDPGDAGMTGAEGPRGFPGTPGRKGEPGEAAYMYHSAFSVGLETRVTVPNVPIRFTKIFYNQQNHYDGSTGKFHCNIPGLYYFSYHITVYMKDVKVSLFKKDKAVLFTYDQYQEKNVDQASGSMLLHLEVGDQVWLQVYGEGDNNGLYADNVNDSTFTGFLLYHDTN	glycan array binding signal (z-score)	Neu5Ac(a2-6)Gal(b1-4)Glc	-0.671
same	glycan array binding signal (z-score)	[1]	0.383
same	glycan array binding signal (z-score)	[5]	-0.035
same	glycan array binding signal (z-score)	[6]	0.188
same	glycan array binding signal (z-score)	Neu5Ac(a2-8)Neu5Ac	0.121
same	glycan array binding signal (z-score)	[23]	-0.59
same	glycan array binding signal (z-score)	[28]	-0.658
same	glycan array binding signal (z-score)	[29]	-0.748
